Taken from: PubChem BioAssay AID1224830 (NIAID, 2016)

- Assay: 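Genes whose knock-down alters the TNF-alpha reporter response to LPS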 (primary screen)
- Cells: human THP-1 monocytic leukaemia cells, TNF dual-luciferase reporter clone, PMA-differentiated to macrophage-like cells
- Reagent: siRNA pool against human genes, 50 nM
- Time to read-out: LPS for 4 h, given about 3 days after siRNA transfection
- Challenge: bacterial LPS (TLR4 ligand), 10 ng/ml
- Measured: 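TNF firefly reporter luminescence divided by renilla, normalised to the plate median, then turned into a robust z-score for each replicate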
- Direction: TNF reporter robust z-score: higher = stronger TNF reporter response to LPS
- Active means: 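Each well counts as active if its z-score is over 2.8 or under -1.5; controls are left without a call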
Shown is one part, drawn at random, of about 18,000 deposited reagents. About 2,900 of all reagents (16%) were called active. 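Calls are made per well; low scores hint the gene aids the LPS response, high scores that it dampens it.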 Repeated entries: four replicate wells of each siRNA pool.

DIRAS2 (DIRAS family GTPase 2)
- TNF reporter robust z-score: 1.1
- call: inactive

DIRAS2 (DIRAS family GTPase 2)
- TNF reporter robust z-score: 0.25
- call: inactive

DIRAS2 (DIRAS family GTPase 2)
- TNF reporter robust z-score: 1.23
- call: inactive

DIRAS2 (DIRAS family GTPase 2)
- TNF reporter robust z-score: 1.51
- call: inactive

THOC1 (THO complex subunit 1)
- TNF reporter robust z-score: -1.74
- call: active

THOC1 (THO complex subunit 1)
- TNF reporter robust z-score: -0.74
- call: inactive

THOC1 (THO complex subunit 1)
- TNF reporter robust z-score: -0.96
- call: inactive

THOC1 (THO complex subunit 1)
- TNF reporter robust z-score: -1.02
- call: inactive

ARRDC4 (arrestin domain containing 4)
- TNF reporter robust z-score: -1.38
- call: inactive

ARRDC4 (arrestin domain containing 4)
- TNF reporter robust z-score: -0.27
- call: inactive

ARRDC4 (arrestin domain containing 4)
- TNF reporter robust z-score: -0.46
- call: inactive

ARRDC4 (arrestin domain containing 4)
- TNF reporter robust z-score: -0.91
- call: inactive

AURKC (aurora kinase C)
- TNF reporter robust z-score: -0.47
- call: inactive

AURKC (aurora kinase C)
- TNF reporter robust z-score: 0.9
- call: inactive

AURKC (aurora kinase C)
- TNF reporter robust z-score: 0.4
- call: inactive

AURKC (aurora kinase C)
- TNF reporter robust z-score: 1.24
- call: inactive

NFIA (nuclear factor I A)
- TNF reporter robust z-score: -1.04
- call: inactive

NFIA (nuclear factor I A)
- TNF reporter robust z-score: 0.13
- call: inactive

NFIA (nuclear factor I A)
- TNF reporter robust z-score: 0.48
- call: inactive

NFIA (nuclear factor I A)
- TNF reporter robust z-score: 0.92
- call: inactive

CNDP1 (carnosine dipeptidase 1)
- TNF reporter robust z-score: -0.74
- call: inactive

CNDP1 (carnosine dipeptidase 1)
- TNF reporter robust z-score: 0.39
- call: inactive

CNDP1 (carnosine dipeptidase 1)
- TNF reporter robust z-score: -0.92
- call: inactive

CNDP1 (carnosine dipeptidase 1)
- TNF reporter robust z-score: 0.03
- call: inactive

RNF214 (ring finger protein 214)
- TNF reporter robust z-score: -0.91
- call: inactive

RNF214 (ring finger protein 214)
- TNF reporter robust z-score: -1.33
- call: inactive

RNF214 (ring finger protein 214)
- TNF reporter robust z-score: -1.93
- call: active

RNF214 (ring finger protein 214)
- TNF reporter robust z-score: -2.06
- call: active

SCAMP4
- TNF reporter robust z-score: -0.73
- call: inactive

SCAMP4
- TNF reporter robust z-score: -0.69
- call: inactive

SCAMP4
- TNF reporter robust z-score: -1.14
- call: inactive

SCAMP4
- TNF reporter robust z-score: -0.95
- call: inactive

MAS1 (MAS1 proto-oncogene, G protein-coupled receptor)
- TNF reporter robust z-score: 0.06
- call: inactive

MAS1 (MAS1 proto-oncogene, G protein-coupled receptor)
- TNF reporter robust z-score: 0.25
- call: inactive

MAS1 (MAS1 proto-oncogene, G protein-coupled receptor)
- TNF reporter robust z-score: 0.74
- call: inactive

MAS1 (MAS1 proto-oncogene, G protein-coupled receptor)
- TNF reporter robust z-score: 1.04
- call: inactive

SHB (SH2 domain containing adaptor protein B)
- TNF reporter robust z-score: 0.12
- call: inactive

SHB (SH2 domain containing adaptor protein B)
- TNF reporter robust z-score: 0
- call: inactive

SHB (SH2 domain containing adaptor protein B)
- TNF reporter robust z-score: -0.09
- call: inactive

DNAH6 (dynein axonemal heavy chain 6)
- TNF reporter robust z-score: 0.12
- call: inactive

DNAH6 (dynein axonemal heavy chain 6)
- TNF reporter robust z-score: 0.27
- call: inactive

DNAH6 (dynein axonemal heavy chain 6)
- TNF reporter robust z-score: 1.22
- call: inactive

DNAH6 (dynein axonemal heavy chain 6)
- TNF reporter robust z-score: 0
- call: inactive

ZNF341 (zinc finger protein 341)
- TNF reporter robust z-score: -0.22
- call: inactive

ZNF341 (zinc finger protein 341)
- TNF reporter robust z-score: 0.23
- call: inactive

ZNF341 (zinc finger protein 341)
- TNF reporter robust z-score: 1.58
- call: inactive

ZNF341 (zinc finger protein 341)
- TNF reporter robust z-score: 0.2
- call: inactive

No new results follow: 6 of the entries above.
ARRDC4 (arrestin domain containing 4)
- TNF reporter robust z-score: -0.46
- call: inactive

ARRDC4 (arrestin domain containing 4)
- TNF reporter robust z-score: -0.91
- call: inactive

AURKC (aurora kinase C)
- TNF reporter robust z-score: -0.47
- call: inactive

AURKC (aurora kinase C)
- TNF reporter robust z-score: 0.9
- call: inactive

AURKC (aurora kinase C)
- TNF reporter robust z-score: 0.4
- call: inactive

AURKC (aurora kinase C)
- TNF reporter robust z-score: 1.24
- call: inactive
